Values of other authors in US20030195186A1, “Methods of treating medication-, substance-, disease-, and other medical condition-related sexual dysfunction” (priority 2002, published 2003).
For at least one compound, name, drawing or mass did not settle the structure.

What was measured:
[1] = test system: estrogen-activated lordosis; details: injected, rats
[2] = subcutaneous; spinal-cord injured male patients; case reports

## CNC(=O)Oc1ccc2c(c1)[C@]1(C)CCN(C)[C@@H]1N2C [physostigmine]
[1]
  reversal of inhibition of estrogen-activated lordosis by androgens: reverse inhibition of estrogen-activated lordosis by androgens
[2]
  assisting patients with anejaculation to obtain ejaculation: being able to obtain ejaculation
